Experimental data reported in doi:10.1101/2019.12.13.876029.
Where a chain is given by its changes, count along the chain named. These are yes or no findings as the source states them, for the method shown. In cells and extracts the contact can be indirect. Some binding calls cover weakened binding; strength is not graded here. Tags and fused reporters may be left off the sequences shown.

Amino acid sequences for entries named in this document (tags omitted).
UniProt P25694: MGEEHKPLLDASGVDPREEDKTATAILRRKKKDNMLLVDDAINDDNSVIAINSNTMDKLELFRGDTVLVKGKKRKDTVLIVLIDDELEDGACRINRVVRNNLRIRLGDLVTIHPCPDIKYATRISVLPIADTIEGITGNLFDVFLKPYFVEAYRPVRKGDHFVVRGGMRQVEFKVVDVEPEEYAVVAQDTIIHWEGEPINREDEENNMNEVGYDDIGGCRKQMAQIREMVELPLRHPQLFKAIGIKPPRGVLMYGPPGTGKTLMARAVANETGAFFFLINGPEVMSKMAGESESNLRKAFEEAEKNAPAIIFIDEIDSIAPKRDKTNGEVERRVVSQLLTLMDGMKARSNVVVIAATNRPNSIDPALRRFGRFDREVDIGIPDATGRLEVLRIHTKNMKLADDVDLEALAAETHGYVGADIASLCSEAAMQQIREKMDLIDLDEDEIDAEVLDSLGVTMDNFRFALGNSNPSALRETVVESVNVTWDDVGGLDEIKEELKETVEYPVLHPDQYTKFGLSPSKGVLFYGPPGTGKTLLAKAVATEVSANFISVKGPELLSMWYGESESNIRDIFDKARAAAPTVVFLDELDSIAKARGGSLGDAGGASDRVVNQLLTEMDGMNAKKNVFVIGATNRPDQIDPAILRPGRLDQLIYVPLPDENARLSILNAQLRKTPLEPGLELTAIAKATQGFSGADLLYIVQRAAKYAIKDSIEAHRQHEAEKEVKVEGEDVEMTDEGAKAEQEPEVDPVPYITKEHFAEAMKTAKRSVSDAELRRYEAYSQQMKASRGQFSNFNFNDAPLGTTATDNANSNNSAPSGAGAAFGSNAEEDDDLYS
UniProt P52286: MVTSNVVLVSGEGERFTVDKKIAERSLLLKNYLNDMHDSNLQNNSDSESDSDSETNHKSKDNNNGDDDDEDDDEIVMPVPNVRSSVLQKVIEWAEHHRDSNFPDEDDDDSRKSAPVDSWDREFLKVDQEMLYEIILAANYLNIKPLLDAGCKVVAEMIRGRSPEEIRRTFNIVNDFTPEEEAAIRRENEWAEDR

B1: Shp1-3xHA (wild type) (protein, UniProt P34223 1-423)
chain: MAEIPDETIQQFMALTNVSHNIAVQYLSEFGDLNEALNSYYASQTDDQKDRREEAHWNRQQEKALKQEAFSTNSSNKAINTEHVGGLCPKPGSSQGSNEYLKRKGSTSPEPTKGSSRSGSGNNSRFMSFSDMVRGQADDDDEDQPRNTFAGGETSGLEVTDPSDPNSLLKDLLEKARRGGQMGAENGFRDDEDHEMGANRFTGRGFRLGSTIDAADEVVEDNTSQSQRRPEKVTREITFWKEGFQVADGPLYRYDDPANSFYLSELNQGRAPLKLLDVQFGQEVEVNVYKKLDESYKAPTRKLGGFSGQGQRLGSPIPGESSPAEVPKNETPAAQEQPMPDNEPKQGDTSIQIRYANGKREVLHCNSTDTVKFLYEHVTSNANTDPSRNFTLNYAFPIKPISNDETTLKDADLLNSVVVQRWA
B2: Shp1 ΔUBXCt-3xHA (domain or fragment, UniProt P34223 1-400)
chain: MAEIPDETIQQFMALTNVSHNIAVQYLSEFGDLNEALNSYYASQTDDQKDRREEAHWNRQQEKALKQEAFSTNSSNKAINTEHVGGLCPKPGSSQGSNEYLKRKGSTSPEPTKGSSRSGSGNNSRFMSFSDMVRGQADDDDEDQPRNTFAGGETSGLEVTDPSDPNSLLKDLLEKARRGGQMGAENGFRDDEDHEMGANRFTGRGFRLGSTIDAADEVVEDNTSQSQRRPEKVTREITFWKEGFQVADGPLYRYDDPANSFYLSELNQGRAPLKLLDVQFGQEVEVNVYKKLDESYKAPTRKLGGFSGQGQRLGSPIPGESSPAEVPKNETPAAQEQPMPDNEPKQGDTSIQIRYANGKREVLHCNSTDTVKFLYEHVTSNANTDPSRNFTLNYAFPIKP
B3: Shp1 ΔCIM2-3xHA (protein, UniProt P34223 1-423)
chain: B1 chain with F396G, P397A, I398G
B4: Shp1-3xHA-AID (protein, UniProt P34223 1-423)
chain: B1 chain
B5: Npl4-3xHA (protein, UniProt P33755 1-580)
chain: MLIRFRSKNGTHRVSCQENDLFGTVIEKLVGNLDPNADVDTFTVCEKPGQGIHAVSELADRTVMDLGLKHGDMLILNYSDKPANEKDGVNVEIGSVGIDSKGIRQHRYGPLRIKELAVDEELEKEDGLIPRQKSKLCKHGDRGMCEYCSPLPPWDKEYHEKNKIKHISFHSYLKKLNENANKKENGSSYISPLSEPDFRINKRCHNGHEPWPRGICSKCQPSAITLQQQEFRMVDHVEFQKSEIINEFIQAWRYTGMQRFGYMYGSYSKYDNTPLGIKAVVEAIYEPPQHDEQDGLTMDVEQVKNEMLQIDRQAQEMGLSRIGLIFTDLSDAGAGDGSVFCKRHKDSFFLSSLEVIMAARHQTRHPNVSKYSEQGFFSSKFVTCVISGNLEGEIDISSYQVSTEAEALVTADMISGSTFPSMAYINDTTDERYVPEIFYMKSNEYGITVKENAKPAFPVDYLLVTLTHGFPNTDTETNSKFVSSTGFPWSNRQAMGQSQDYQELKKYLFNVASSGDFNLLHEKISNFHLLLYINSLQILSPDEWKLLIESAVKNEWEESLLKLVSSAGWQTLVMILQESG

Target: T1, 12xMyc-Met30 (F-box protein Met30 of SCF^Met30) (budding yeast (endogenous in the yeast strains)) (UniProt P39014)
T1 sequence: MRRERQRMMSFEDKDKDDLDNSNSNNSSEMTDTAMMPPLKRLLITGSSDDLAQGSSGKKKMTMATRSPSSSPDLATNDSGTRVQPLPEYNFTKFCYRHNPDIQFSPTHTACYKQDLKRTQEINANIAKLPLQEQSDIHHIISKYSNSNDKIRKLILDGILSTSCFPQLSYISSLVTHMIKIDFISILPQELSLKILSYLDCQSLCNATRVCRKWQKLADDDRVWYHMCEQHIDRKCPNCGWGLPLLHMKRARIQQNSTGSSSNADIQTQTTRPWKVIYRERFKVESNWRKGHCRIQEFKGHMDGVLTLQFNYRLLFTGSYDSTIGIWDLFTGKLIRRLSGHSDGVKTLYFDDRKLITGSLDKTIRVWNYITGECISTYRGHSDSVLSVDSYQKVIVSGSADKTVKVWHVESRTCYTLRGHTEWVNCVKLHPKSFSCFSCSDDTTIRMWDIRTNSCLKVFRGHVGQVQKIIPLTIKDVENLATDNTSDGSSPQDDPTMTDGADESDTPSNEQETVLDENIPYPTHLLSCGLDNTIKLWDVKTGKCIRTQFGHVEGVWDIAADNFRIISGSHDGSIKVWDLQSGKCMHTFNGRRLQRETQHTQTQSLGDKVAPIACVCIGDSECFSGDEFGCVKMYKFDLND
Experiment: co-IP

Row | Molecule | binding
1 | Cdc48-RGS6H (AAA-ATPase Cdc48) (from UniProt P25694 1-835) (enzyme) | binds
2 | Skp1 (from UniProt P52286 1-194) | binds
3 | B1 | binds
4 | B2 | binds
5 | B3 | binds
6 | B4 | binds
7 | B5 | binds
